# Experimental data reported in the supplement of paper PMC8728848.
# The list shows a part of the results.
# B1: PX14404-bvu-534-26-534 (Bacteroides vulgatus) (protein)
# chain: EDPRGKLTPENFFSTQDELNMSIYALYQKVNLSQVYTNMQLPQWQGDDITTNPGSNKQPAAEMDKFAAANNNKGVKDAWNMHYAIVKAANLIIQGASKTPTTQDEINIALGQAKFWRAYAYFTLVRLWGPLPMNLDNVNDDYTKPLSPVEEVYGHIVQDLTEAEAVLPTGYSGSPRFLNGVNVYVTRQAAKSTLAAVYMAMAGWPMNKTEYYAKAAEKAKEVIEGVNRGEYEYKLDKDYKDVYAMSNNYNNETVLGINYSPFVDWAQDSELTSCNQFESLGGWGDAWGEIRFWKEFPDGPRKDATYDPKIRLKDGTLVDWWELKEDGTPVVPEHHPMFSIFSVNWDPASKVNTSAPYDYTKPASQNMCNDHRHRIIRYSEVLLWYAEAKARTGQTDELAFKCLNDVRERAGLEPLTGLSADDLAEAAYKEHGWEVAGYWVALVTRRADQFRMNRLKDTFKERAENTAVEVADGILVKESVEYTNRTWSDNLMYLPYPDMDSQKNPNLVR
# Legend:
# Assay in all cases: glycan array binding signal (z-score within array); higher = stronger binding
# Settings in all cases: glycan notation: IUPAC condensed, linker removed
# [1] = target: Kdn(a2-3)Gal(b1-4)Glc
# In short: (§1)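 The binding signal is a Z-score computed within each array. Data were drawn from 3228 arrays in the Consortium for Functional Glycomics database, restricted to those with a known protein sequence. Scores were averaged over arrays of the same protein sequence at different concentrations or buffers, and over linkers, and negative values can be taken as non-binding.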
# [2] = target: Kdn(a2-3)Gal(b1-4)GlcNAc
# In short: as §1
# [3] = target: Kdn(a2-3)Gal(b1-4)[Fuc(a1-3)]GlcNAc
# In short: as §1
# [4] = target: Kdn(a2-6)Gal(b1-4)GlcNAc
# In short: as §1
# [5] = target: Man(a1-2)Man(a1-2)Man(a1-3)Man
# In short: as §1
# [6] = target: Man(a1-2)Man(a1-2)Man(a1-6)[Man(a1-3)]Man
# In short: as §1
# [7] = target: Man(a1-2)Man(a1-3)Man
# In short: as §1
# [8] = target: Man(a1-2)Man(a1-3)[Man(a1-2)Man(a1-6)]Man
# In short: as §1
# [9] = target: Man(a1-2)Man(a1-3)[Man(a1-2)Man(a1-6)]Man(a1-6)[Man(a1-2)Man(a1-2)Man(a1-3)]Man
# In short: as §1
# [10] = target: Man(a1-2)Man(a1-3)[Man(a1-2)Man(a1-6)]Man(a1-6)[Man(a1-2)Man(a1-2)Man(a1-3)]Man(b1-4)GlcNAc(b1-4)GlcNAc
# In short: as §1
# [11] = target: Man(a1-2)Man(a1-3)[Man(a1-6)]Man(a1-6)[Man(a1-2)Man(a1-3)]Man(b1-4)GlcNAc(b1-4)GlcNAc
# In short: as §1
# [12] = target: Man(a1-2)Man(a1-6)[Man(a1-3)]Man(a1-6)[Man(a1-2)Man(a1-2)Man(a1-3)]Man
# In short: as §1
# [13] = target: Man(a1-2)Man(a1-6)[Man(a1-3)]Man(a1-6)[Man(a1-2)Man(a1-2)Man(a1-3)]Man(b1-4)GlcNAc(b1-4)GlcNAc
# In short: as §1
# [14] = target: Man(a1-3)[Man(a1-6)]Man
# In short: as §1
# [15] = target: Man(a1-3)[Man(a1-6)]Man(a1-6)[Man(a1-2)Man(a1-3)]Man(b1-4)GlcNAc(b1-4)GlcNAc
# In short: as §1
# [16] = target: Man(a1-3)[Man(a1-6)]Man(a1-6)[Man(a1-3)]Man
# In short: as §1
# [17] = target: Man(a1-3)[Man(a1-6)]Man(a1-6)[Man(a1-3)]Man(b1-4)GlcNAc(b1-4)GlcNAc
# In short: as §1
# [18] = target: Man(a1-3)[Man(a1-6)]Man(b1-4)GlcNAc(b1-4)GlcNAc
# In short: as §1
# [19] = target: Man(a1-3)[Man(a1-6)]Man(b1-4)GlcNAc(b1-4)[Fuc(a1-6)]GlcNAc
# In short: as §1
# [20] = target: Man(a1-6)Man
# In short: as §1
# [21] = target: Man(b1-4)GlcNAc
# In short: as §1
# [22] = target: MurNAc(b1-4)GlcNAc
# In short: as §1
# [23] = target: Neu5Ac(a2-3)Gal
# In short: as §1
# [24] = target: Neu5Ac(a2-3)Gal(b1-3)GalNAc
# In short: as §1
# [25] = target: Neu5Ac(a2-3)Gal(b1-3)GalNAc(b1-3)Gal(a1-4)Gal(b1-4)Glc
# In short: as §1
# [26] = target: Neu5Ac(a2-3)Gal(b1-3)GalNAc(b1-4)[Neu5Ac(a2-3)]Gal(b1-4)Glc
# In short: as §1
# [27] = target: Neu5Ac(a2-3)Gal(b1-3)GalNAc(b1-4)[Neu5Ac(a2-8)Neu5Ac(a2-3)]Gal(b1-4)Glc
# In short: as §1
# [28] = target: Neu5Ac(a2-3)Gal(b1-3)GalNAc6S
# In short: as §1
# [29] = target: Neu5Ac(a2-3)Gal(b1-3)GlcNAc
# In short: as §1
# [30] = target: Neu5Ac(a2-3)Gal(b1-3)GlcNAc(b1-2)Man
# In short: as §1
# [31] = target: Neu5Ac(a2-3)Gal(b1-3)GlcNAc(b1-2)Man(a1-3)[GlcNAc(b1-4)][Neu5Ac(a2-3)Gal(b1-3)GlcNAc(b1-2)Man(a1-6)]Man(b1-4)GlcNAc(b1-4)GlcNAc
# In short: as §1
# [32] = target: Neu5Ac(a2-3)Gal(b1-3)GlcNAc(b1-2)Man(a1-3)[Neu5Ac(a2-3)Gal(b1-3)GlcNAc(b1-2)Man(a1-6)]Man(b1-4)GlcNAc(b1-4)GlcNAc
# In short: as §1
# [33] = target: Neu5Ac(a2-3)Gal(b1-3)GlcNAc(b1-3)Gal(b1-3)GlcNAc
# In short: as §1
# [34] = target: Neu5Ac(a2-3)Gal(b1-3)GlcNAc(b1-3)Gal(b1-4)GlcNAc
# In short: as §1
# [35] = target: Neu5Ac(a2-3)Gal(b1-3)GlcNAc(b1-3)GalNAc
# In short: as §1
# [36] = target: Neu5Ac(a2-3)Gal(b1-3)GlcNAc(b1-4)Gal(b1-4)Glc
# In short: as §1
# [37] = target: Neu5Ac(a2-3)Gal(b1-3)GlcNAc(b1-6)GalNAc
# In short: as §1
# [38] = target: Neu5Ac(a2-3)Gal(b1-3)GlcNAc6S
# In short: as §1
binder,measurement,setting,value
B1,glycan array binding signal (z-score),[1],0.308
same,glycan array binding signal (z-score),[2],1.4
same,glycan array binding signal (z-score),[3],-0.295
same,glycan array binding signal (z-score),[4],0.367
same,glycan array binding signal (z-score),[5],0.302
same,glycan array binding signal (z-score),[6],1.57
same,glycan array binding signal (z-score),[7],1.24
same,glycan array binding signal (z-score),[8],-0.867
same,glycan array binding signal (z-score),[9],-0.57
same,glycan array binding signal (z-score),[10],0.651
same,glycan array binding signal (z-score),[11],-0.161
same,glycan array binding signal (z-score),[12],-0.052
same,glycan array binding signal (z-score),[13],0.339
same,glycan array binding signal (z-score),[14],-0.096
same,glycan array binding signal (z-score),[15],0.378
same,glycan array binding signal (z-score),[16],2.67
same,glycan array binding signal (z-score),[17],1.02
same,glycan array binding signal (z-score),[18],-0.728
same,glycan array binding signal (z-score),[19],-0.886
same,glycan array binding signal (z-score),[20],-0.464
same,glycan array binding signal (z-score),[21],-0.223
same,glycan array binding signal (z-score),[22],0.48
same,glycan array binding signal (z-score),[23],0.33
same,glycan array binding signal (z-score),[24],-0.385
same,glycan array binding signal (z-score),[25],0.877
same,glycan array binding signal (z-score),[26],1.67
same,glycan array binding signal (z-score),[27],-0.197
same,glycan array binding signal (z-score),[28],0.267
same,glycan array binding signal (z-score),[29],0.177
same,glycan array binding signal (z-score),[30],1.81
same,glycan array binding signal (z-score),[31],-0.618
same,glycan array binding signal (z-score),[32],-0.193
same,glycan array binding signal (z-score),[33],-1.2
same,glycan array binding signal (z-score),[34],-0.891
same,glycan array binding signal (z-score),[35],0.366
same,glycan array binding signal (z-score),[36],-0.846
same,glycan array binding signal (z-score),[37],-0.09
same,glycan array binding signal (z-score),[38],0.354

# Given with bars between the fields: part of the list above
binder | measurement | setting | value
B1 | glycan array binding signal (z-score) | [1] | 0.308
same | glycan array binding signal (z-score) | [5] | 0.302
same | glycan array binding signal (z-score) | [8] | -0.867
same | glycan array binding signal (z-score) | [13] | 0.339
same | glycan array binding signal (z-score) | [15] | 0.378
same | glycan array binding signal (z-score) | [23] | 0.33
same | glycan array binding signal (z-score) | [27] | -0.197
same | glycan array binding signal (z-score) | [28] | 0.267
